According to US11116817B2, “Antimicrobial agents and compositions comprising the same” (THE CURATORS OF THE UNIVERSITY OF MISSOURI, priority 2017, dated 2021):
At least one peptide structure holds a part that was inferred or is arguable (an end, a ring closure or a residue). Positions of bridges follow the written chain, without caps; N, C: chain ends. No end group written: not given here.

Key:
S. aureus = assay: Antimicrobial activity after protease digestion (colony count); assay type: cell-based; conditions: for Anti-Staphylococcus activity after α-chymotrypsin treatment: only at the highest concentration (1.2 μg/ml) of α-chymotrypsin; for antimicrobial activity after treatment with matrilysin, elastase, and cathepsin B: protease up to 20 μg/ml (data not shown)
[1] = system: CCR-2 transfected CHO-K1 cells; assay: Chemotaxis assay (48-well microchemotaxis chamber); assay type: cell-based, hamster
Experimental: (§1) Migration of JAWSII and CCR-2 transfected CHO-K1 cells in response to CAMPs (SEQ ID NOs: 1, 2, 3, and 4) was determined using a 48-well microchemotaxis chamber technique as previously described. Chemotaxis buffer (Minimum Essential Medium containing 0.1% BSA, 100 U/ml penicillin, and 100 μg/ml streptomycin) and bacterial peptide N-Formyl-methionyl-leucyl-phenylalanine (fMLF, Sigma-Aldrich) were included as negative and positive controls, respectively. The results were presented as chemotactic index (C.I.)=number of migrated cells induced by CAMPs (SEQ ID NOs: 1, 2, 3, and 4)/number of migrated cells induced by chemotactic buffer. The assay was repeated five times.
as §1, with “CCR2-CHO-K1” for “CCR-2 transfected CHO-K1”, “the analogues” for “CAMPs (SEQ ID NOs: 1, 2, 3, and 4)”, “For JAWSII cells, chemotaxis” for “Chemotaxis”, “(C.I.). C.I.=number” for “(C.I.)=number”, “the analogues/number” for “CAMPs (SEQ ID NOs: 1, 2, 3, and 4)/number”

[2] = system: Gram-positive bacteria (S. aureus and MRSP strains); assay: MIC assay, Example One, pooled over Gram-positive strains; assay type: cell-based, S. pseudintermedius
Experimental: The minimum inhibitory concentrations (MICs) of CAMPs (SEQ ID NOs: 1, 2, 3, and 4) were determined according to the guidelines of the Clinical and Laboratory Standards Institute (CLSI). The Muller Hinton (MH) II broth used in MIC assay was supplemented with 20-25 mg/L of calcium and 10-12.5 mg/L of magnesium. In brief, peptides were two-fold serially diluted (2 to 256 μg/ml) in a 96-well microtiter plate (Nunc™, Thermo Fisher Scientific) and an equal volume (μl) of bacterial suspension was added to each well of the plate. The final bacterial concentration in the wells was 5×10^5 CFU/ml. […] All assays were conducted in triplicate.
The Hemolytic Assay includes the following procedures. […] The supernatant was transferred to a 96-well flat-bottomed polystyrene plate (Thermo Fisher Scientific), and the amount of hemoglobin released into the supernatant was determined by measuring the absorbance with a spectrophotometer at 540 nm. Hemolytic activity was expressed as the percentage of hemolysis and calculated using the following equation: hemolysis (%)=(As−A0)/(A100−A0)×100, where As is the absorbance of the sample, A100 is the absorbance of completely lysed RBCs in 0.2% Triton X-100, and A0 is the absorbance in the complete absence of hemolysis (PBS treatment). […] Therapeutic index (T.I.) was calculated according to a previously published formula: T.I.=MHC/MICGM. […]

[3] = system: E. coli, S. Typhimurium, P. aeruginosa and S. aureus; assay: Antimicrobial activity assay (colony counting), Example Two, statements over all four bacteria; assay type: cell-based
Experimental: Escherichia coli (ATCC 25922), Pseudomonas aeruginosa (ATCC 27853), Salmonella enteric serovar Typhimurium (ATCC 14028) and Staphylococcus aureus (ATCC 29213) were used to assess the antimicrobial activity of AvBD analogues (SEQ ID NOs: 5, 6, 7, 8, 9, 10, 11, 12, and 13). All bacterial strains were grown on Luria-Bertani (LB) agar plates or Trypticase Soy Agar with 5% Sheep Blood (TSA, Thermo Fisher Scientific) plates at 37° C. Antimicrobial activity was determined by a colony counting assay. In brief, bacteria were suspended in 100-fold diluted Mueller Hinton broth with 5 mM NaCl (minimal growth medium) to obtain a final bacterial concentration of 2×10^5 CFU/ml. Twenty-five microliters of bacterial suspension and 25 μl of AvBD analogue (SEQ ID NOs: 5, 6, 7, 8, 9, 10, 11, 12, and 13) solution were mixed in the wells of a 96-well polypropylene microtiter plate (Nunc™, Thermo Fisher Scientific). The final peptide concentrations were 2, 4, 8, 16, 32, 64 and 128 μg/ml. The minimal growth medium without AvBD peptide (SEQ ID NO: 5, 6, 7, 8, 9, 10, 11, 12, and 13) was included as a negative control. The bacterial-peptide mixtures were incubated at 37° C. for 2 hours, 10-fold serially diluted and plated on LB agar plates. […] Antimicrobial activity was expressed as percent of killing using the following formula: (CPUcontrol−CFUtreated)/CFUcontrol×100%. […]

JAWSII cells = assay: Chemotaxis assay (48-well microchemotaxis chamber); assay type: cell-based, mouse
Experimental: as §1
as §1, with “CCR2-CHO-K1” for “CCR-2 transfected CHO-K1”, “the analogues” for “CAMPs (SEQ ID NOs: 1, 2, 3, and 4)”, “For JAWSII cells, chemotaxis” for “Chemotaxis”, “(C.I.). C.I.=number” for “(C.I.)=number”, “the analogues/number” for “CAMPs (SEQ ID NOs: 1, 2, 3, and 4)/number”

[4] = system: P. aeruginosa (ATCC 27853); assay type: cell-based; conditions: low salt condition (5 mM NaCl)
Experimental: The minimum inhibitory concentrations (MIC) of AvBDs (SEQ ID NOs: 5, 6, 7, 8, 9, 10, 11, 12, and 13) were determined under low salt and standard conditions according to the guidelines of the Clinical and Laboratory Standards Institute (CLSI). […] An equal volume […] of bacterial suspension was added to each well of the plate. The final bacterial concentration in the wells was 5×10^5 CFU/ml. […] To complement MIC-1s assays, the minimum bactericidal concentrations (MBC) were evaluated by sub-culturing the contents of the first two clear wells obtained in the MIC-1s assay onto LB agar plates. All assays were conducted in triplicate. The lowest peptide concentration inhibiting about, at least, or more than 99% of bacterial growth was defined as MBC-1s. The analogues were regarded as bactericidal when the MBC was determined to be no more than four times the MIC.

Substance | Anti-Staphylococcus activity after α-chymotrypsin treatment (S. aureus) | antimicrobial activity after treatment with matrilysin, elastase, and cathepsin B (S. aureus) | chemotactic activity [1] | further results
Ac-LRRLKPLIRPWLRPLRRWWW-NH2 [CAMP-A] | mildly affected | did not affect the antimicrobial activity | No significant chemotactic activity | –
Ac-RKFLRRRGEVAHFSQKSLGLYCWWW-NH2 [CAMP-t1] | – | – | did not appear to produce chemotactic activity | –
Ac-PIHRRIPPRWPRLKRRW-NH2 [CAMP-t2, PIHRRIPPRWPRLKRRW] | – | – | did not show appear to show any increased chemotactic activity | MICs lower than that of AvBD-6 [2]: up to 4 fold
GPRSANHKRGLARVGNANPGKYLAKYSFRPVILSSKPLSPTPTKT [AvBD-12A3] | – | – | mild or little chemotactic activity | –
Ac-RRRWRKRRWWW-NH2 [CAMP-B, RRRWRKRRWWW] | mildly affected | did not affect the antimicrobial activity | did not show appear to show any increased chemotactic activity | –
GPHSCNHQRGLCRVGNCNPGYYLAKYCFSPVILCCKPLSPTPTKT (disulfide 5-34, 12-27, 17-35) [AvBD-12/6] | – | – | retained the chemotactic function of the backbone peptide AvBD-12 | killing activity compared with parent peptide ([3]; 2 to 128 μg/ml, 37° C., 2 hours): killing activities similar to that of AvBD-6; impact of NaCl on the killing activity ([3]; NaCl 5 to 150 mM): more likely resemble the killing activity of AvBD-6; chemotactic activity (JAWSII cells): retained the chemotactic function of the backbone peptide AvBD-12; MBS-Is [4]: 256 µg/mL
